# Data reported in the supplement of paper PMC8728848.
# The list shows a part of the results.
# B1: EUL D1A second (Oryza sativa) (protein)
# chain: GAATACTIGGVPVHTVRVFSAAGEDYCLTVRNGTACLAPKNPRDDYQHWIKDMRHSNKIRDEEGYPAFALVNKVTGEAIKHSTGQGHPVKLVPYNPEYQDESVLWTESKDVGKGFRCIRMVNNIYLNFDAFHGDKDHGGIHDGTEIVLWKWCEGDNQRWKILPWILEQKLISEEDLNSAVDHHHHHH
# Tests used:
# Experiment in all cases: glycan array binding signal (z-score within array); higher = stronger binding
# Details in all cases: glycan notation: IUPAC condensed, linker removed
# [1] = molecular target: Fuc(a1-2)Gal
# How it was run: (§1)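 From the Consortium for Functional Glycomics database, 3228 arrays were curated, keeping only those whose protein sequence was available. Binding is given as a within-array Z-score averaged across arrays sharing a protein sequence and across linkers. Negative Z-scores can be read as non-binding.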
# [2] = molecular target: Fuc(a1-2)Gal(b1-3)GalNAc
# How it was run: as §1
# [3] = molecular target: Fuc(a1-2)Gal(b1-3)GalNAc(a1-3)[Fuc(a1-2)]Gal(b1-4)Glc
# How it was run: as §1
# [4] = molecular target: Fuc(a1-2)Gal(b1-3)GalNAc(a1-3)[Fuc(a1-2)]Gal(b1-4)GlcNAc
# How it was run: as §1
# [5] = molecular target: Fuc(a1-2)Gal(b1-3)GalNAc(b1-3)Gal
# How it was run: as §1
# [6] = molecular target: Fuc(a1-2)Gal(b1-3)GalNAc(b1-3)Gal(a1-4)Gal(b1-4)Glc
# How it was run: as §1
# [7] = molecular target: Fuc(a1-2)Gal(b1-3)GalNAc(b1-4)[Neu5Ac(a2-3)]Gal(b1-4)Glc
# How it was run: as §1
# [8] = molecular target: Fuc(a1-2)Gal(b1-3)GlcNAc
# How it was run: as §1
# [9] = molecular target: Fuc(a1-2)Gal(b1-3)GlcNAc(b1-2)Man(a1-3)[Fuc(a1-2)Gal(b1-3)GlcNAc(b1-2)Man(a1-6)]Man(b1-4)GlcNAc(b1-4)GlcNAc
# How it was run: as §1
# [10] = molecular target: Fuc(a1-2)Gal(b1-3)GlcNAc(b1-2)Man(a1-3)[Fuc(a1-2)Gal(b1-3)GlcNAc(b1-2)Man(a1-6)]Man(b1-4)GlcNAc(b1-4)[Fuc(a1-6)]GlcNAc
# How it was run: as §1
# [11] = molecular target: Fuc(a1-2)Gal(b1-3)GlcNAc(b1-3)Gal(b1-4)Glc
# How it was run: as §1
# [12] = molecular target: Fuc(a1-2)Gal(b1-3)GlcNAc(b1-3)GalNAc
# How it was run: as §1
# [13] = molecular target: Fuc(a1-2)Gal(b1-3)GlcNAc(b1-3)[Fuc(a1-2)Gal(b1-3)GlcNAc(b1-6)]GalNAc
# How it was run: as §1
# [14] = molecular target: Fuc(a1-2)Gal(b1-3)GlcNAc(b1-3)[Gal(b1-4)GlcNAc(b1-6)]Gal(b1-4)Glc
# How it was run: as §1
# [15] = molecular target: Fuc(a1-2)Gal(b1-3)GlcNAc(b1-3)[Neu5Ac(a2-6)Gal(b1-4)GlcNAc(b1-6)]Gal(b1-4)Glc
# How it was run: as §1
# [16] = molecular target: Fuc(a1-2)Gal(b1-3)GlcNAc6S
# How it was run: as §1
# [17] = molecular target: Fuc(a1-2)Gal(b1-3)[Fuc(a1-4)]GlcNAc
# How it was run: as §1
# [18] = molecular target: Fuc(a1-2)Gal(b1-3)[Fuc(a1-4)]GlcNAc(b1-2)Man(a1-3)[Fuc(a1-2)Gal(b1-3)[Fuc(a1-4)]GlcNAc(b1-2)Man(a1-3)]Man(b1-4)GlcNAc(b1-4)GlcNAc
# How it was run: as §1
# [19] = molecular target: Fuc(a1-2)Gal(b1-3)[Fuc(a1-4)]GlcNAc(b1-2)Man(a1-3)[Fuc(a1-2)Gal(b1-3)[Fuc(a1-4)]GlcNAc(b1-2)Man(a1-6)]Man(b1-4)GlcNAc(b1-4)[Fuc(a1-6)]GlcNAc(b1-4)[Fuc(a1-6)]GlcNAc
# How it was run: as §1
# [20] = molecular target: Fuc(a1-2)Gal(b1-3)[Fuc(a1-4)]GlcNAc(b1-3)[Fuc(a1-3)[Gal(b1-4)]GlcNAc(b1-6)]Gal(b1-4)Glc
# How it was run: as §1
# [21] = molecular target: Fuc(a1-2)Gal(b1-3)[Fuc(a1-4)]GlcNAc(b1-3)[Gal(b1-4)GlcNAc(b1-6)]Gal(b1-4)Glc
# How it was run: as §1
# [22] = molecular target: Fuc(a1-2)Gal(b1-4)Glc
# How it was run: as §1
# [23] = molecular target: Fuc(a1-2)Gal(b1-4)Glc6S
# How it was run: as §1
# [24] = molecular target: Fuc(a1-2)Gal(b1-4)GlcNAc
# How it was run: as §1
# [25] = molecular target: Fuc(a1-2)Gal(b1-4)GlcNAc(b1-2)Man
# How it was run: as §1
# [26] = molecular target: Fuc(a1-2)Gal(b1-4)GlcNAc(b1-2)Man(a1-3)[Fuc(a1-2)Gal(b1-4)GlcNAc(b1-2)Man(a1-6)]Man(b1-4)GlcNAc(b1-4)GlcNAc
# How it was run: as §1
# [27] = molecular target: Fuc(a1-2)Gal(b1-4)GlcNAc(b1-2)Man(a1-3)[Fuc(a1-2)Gal(b1-4)GlcNAc(b1-2)Man(a1-6)]Man(b1-4)GlcNAc(b1-4)[Fuc(a1-6)]GlcNAc
# How it was run: as §1
# [28] = molecular target: Fuc(a1-2)Gal(b1-4)GlcNAc(b1-2)[Fuc(a1-2)Gal(b1-4)GlcNAc(b1-4)]Man(a1-3)[Fuc(a1-2)Gal(b1-4)GlcNAc(b1-2)Man(a1-6)]Man(b1-4)GlcNAc(b1-4)GlcNAc
# How it was run: as §1
# [29] = molecular target: Fuc(a1-2)Gal(b1-4)GlcNAc(b1-3)Gal(b1-4)GlcNAc
# How it was run: as §1
# [30] = molecular target: Fuc(a1-2)Gal(b1-4)GlcNAc(b1-3)Gal(b1-4)GlcNAc(b1-2)Man(a1-3)[Fuc(a1-2)Gal(b1-4)GlcNAc(b1-3)Gal(b1-4)GlcNAc(b1-2)Man(a1-6)]Man(b1-4)GlcNAc(b1-4)GlcNAc
# How it was run: as §1
# [31] = molecular target: Fuc(a1-2)Gal(b1-4)GlcNAc(b1-3)Gal(b1-4)GlcNAc(b1-3)Gal(b1-4)GlcNAc
# How it was run: as §1
# [32] = molecular target: Fuc(a1-2)Gal(b1-4)GlcNAc(b1-3)GalNAc
# How it was run: as §1
# [33] = molecular target: Fuc(a1-2)Gal(b1-4)GlcNAc(b1-3)[Fuc(a1-2)Gal(b1-4)GlcNAc(b1-6)]GalNAc
# How it was run: as §1
# [34] = molecular target: Fuc(a1-2)Gal(b1-4)GlcNAc(b1-3)[Fuc(a1-3)[Gal(b1-4)]GlcNAc(b1-6)]Gal(b1-4)Glc
# How it was run: as §1
# [35] = molecular target: Fuc(a1-2)Gal(b1-4)GlcNAc(b1-6)GalNAc
# How it was run: as §1
# [36] = molecular target: Fuc(a1-2)Gal(b1-4)GlcNAc6S
# How it was run: as §1
# [37] = molecular target: Fuc(a1-2)Gal(b1-4)[Fuc(a1-3)]GlcNAc
# How it was run: as §1
# [38] = molecular target: Fuc(a1-2)Gal(b1-4)[Fuc(a1-3)]GlcNAc(b1-2)Man(a1-3)[Fuc(a1-2)Gal(b1-4)[Fuc(a1-3)]GlcNAc(b1-2)Man(a1-6)]Man(b1-4)GlcNAc(b1-4)[Fuc(a1-6)]GlcNAc
# How it was run: as §1
# [39] = molecular target: Fuc(a1-2)Gal(b1-4)[Fuc(a1-3)]GlcNAc(b1-2)[Fuc(a1-2)Gal(b1-4)[Fuc(a1-3)]GlcNAc(b1-4)]Man(a1-3)[Fuc(a1-2)Gal(b1-4)[Fuc(a1-3)]GlcNAc(b1-2)Man(a1-6)]Man(b1-4)GlcNAc(b1-4)GlcNAc
# How it was run: as §1
# [40] = molecular target: Fuc(a1-2)Gal(b1-4)[Fuc(a1-3)]GlcNAc(b1-3)Gal(b1-4)[Fuc(a1-3)]GlcNAc
# How it was run: as §1
# [41] = molecular target: Fuc(a1-2)Gal(b1-4)[Fuc(a1-3)]GlcNAc(b1-3)Gal(b1-4)[Fuc(a1-3)]GlcNAc(b1-3)Gal(b1-4)[Fuc(a1-3)]GlcNAc
# How it was run: as §1
# [42] = molecular target: Fuc(a1-2)Gal(b1-4)[Fuc(a1-3)]GlcNAc(b1-3)GalNAc
# How it was run: as §1
# [43] = molecular target: Fuc(a1-2)Gal(b1-4)[Fuc(a1-3)]GlcNAc(b1-3)[Neu5Ac(a2-6)Gal(b1-4)GlcNAc(b1-6)]Gal(b1-4)Glc
# How it was run: as §1
# [44] = molecular target: Fuc(a1-2)Gal3S(b1-4)GlcNAc
# How it was run: as §1
# [45] = molecular target: Fuc(a1-2)Gal6S(b1-3)GlcNAc
# How it was run: as §1
binder,measurement,setting,value
B1,glycan array binding signal (z-score),[1],0.91
same,glycan array binding signal (z-score),[2],-0.65
same,glycan array binding signal (z-score),[3],0.097
same,glycan array binding signal (z-score),[4],-0.086
same,glycan array binding signal (z-score),[5],0.641
same,glycan array binding signal (z-score),[6],-0.076
same,glycan array binding signal (z-score),[7],-0.8
same,glycan array binding signal (z-score),[8],0.226
same,glycan array binding signal (z-score),[9],0.302
same,glycan array binding signal (z-score),[10],-1.13
same,glycan array binding signal (z-score),[11],-1.01
same,glycan array binding signal (z-score),[12],-0.565
same,glycan array binding signal (z-score),[13],0.473
same,glycan array binding signal (z-score),[14],0.123
same,glycan array binding signal (z-score),[15],-0.13
same,glycan array binding signal (z-score),[16],0.142
same,glycan array binding signal (z-score),[17],-0.16
same,glycan array binding signal (z-score),[18],-0.938
same,glycan array binding signal (z-score),[19],0.045
same,glycan array binding signal (z-score),[20],-1.51
same,glycan array binding signal (z-score),[21],1.09
same,glycan array binding signal (z-score),[22],-0.477
same,glycan array binding signal (z-score),[23],1.58
same,glycan array binding signal (z-score),[24],0.021
same,glycan array binding signal (z-score),[25],-0.464
same,glycan array binding signal (z-score),[26],0.721
same,glycan array binding signal (z-score),[27],-1.11
same,glycan array binding signal (z-score),[28],-0.771
same,glycan array binding signal (z-score),[29],-1.23
same,glycan array binding signal (z-score),[30],0.828
same,glycan array binding signal (z-score),[31],0.558
same,glycan array binding signal (z-score),[32],-0.516
same,glycan array binding signal (z-score),[33],-1.55
same,glycan array binding signal (z-score),[34],0.354
same,glycan array binding signal (z-score),[35],0.581
same,glycan array binding signal (z-score),[36],-0.596
same,glycan array binding signal (z-score),[37],-0.571
same,glycan array binding signal (z-score),[38],-0.719
same,glycan array binding signal (z-score),[39],-0.79
same,glycan array binding signal (z-score),[40],0.548
same,glycan array binding signal (z-score),[41],0.487
same,glycan array binding signal (z-score),[42],1.21
same,glycan array binding signal (z-score),[43],0.625
same,glycan array binding signal (z-score),[44],0.228
same,glycan array binding signal (z-score),[45],-1.71

# Rewritten bar-delimited: entries from further up.
binder | measurement | setting | value
B1 | glycan array binding signal (z-score) | [11] | -1.01
same | glycan array binding signal (z-score) | [33] | -1.55
same | glycan array binding signal (z-score) | [41] | 0.487
